{"source": "PubChem BioAssay AID1259405 (NCATS, 2018)", "screen": "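Knock-downs that lift recombinant protein yield in hamster ovary cells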 (primary screen)", "system": "Chinese hamster CHO-K1 ovary cells with stable secreted eGFP expression", "knock-down reagent": "single siRNA against mouse genes, 0.8 pmol siRNA per well (2 µl of 400 nM stock)", "time to read-out": "3 days", "measurement": "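Per-well intracellular GFP measured by laser scanning cytometry, plus viability from ATP luminescence, each relative to plate median of non-targeting control wells, in %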", "direction": "GFP, % of control: higher = more GFP per well, higher productivity; viability (ATP), % of control: higher = more viable cells (more ATP)", "hit rule": "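Called active when intracellular GFP, relative to negative control, is at or above 120%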", "note": "The whole screen tested about 50,000 reagents; below is a part drawn at random. Over the whole deposit, about 4,000 (8%) are marked active. 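Mouse siRNA library applied to hamster cells; one well for each siRNA.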 Reagents against one gene are numbered here."}
The opening 3 records as a preview:
{"gene symbol": "Krtap19-1", "reagent": 1, "GFP, % of control": 113, "viability (ATP), % of control": 113, "call": "inactive"}
{"gene symbol": "Krtap19-1", "reagent": 2, "GFP, % of control": 53.1, "viability (ATP), % of control": 57.6, "call": "inactive"}
{"gene symbol": "Krtap19-1", "reagent": 3, "GFP, % of control": 83.1, "viability (ATP), % of control": 99.2, "call": "inactive"}

The list itself, repeating the preview:
{"gene symbol": "Krtap19-1", "reagent": 1, "GFP, % of control": 113, "viability (ATP), % of control": 113, "call": "inactive"}
{"gene symbol": "Krtap19-1", "reagent": 2, "GFP, % of control": 53.1, "viability (ATP), % of control": 57.6, "call": "inactive"}
{"gene symbol": "Krtap19-1", "reagent": 3, "GFP, % of control": 83.1, "viability (ATP), % of control": 99.2, "call": "inactive"}
{"gene symbol": "Tmsb15l", "reagent": 1, "GFP, % of control": 60.5, "viability (ATP), % of control": 57.8, "call": "inactive"}
{"gene symbol": "Tmsb15l", "reagent": 2, "GFP, % of control": 60, "viability (ATP), % of control": 58.7, "call": "inactive"}
{"gene symbol": "Tmsb15l", "reagent": 3, "GFP, % of control": 120, "viability (ATP), % of control": 112, "call": "active"}
{"gene symbol": "Vmn1r229", "reagent": 1, "GFP, % of control": 60, "viability (ATP), % of control": 51.8, "call": "inactive"}
{"gene symbol": "Vmn1r229", "reagent": 2, "GFP, % of control": 92.3, "viability (ATP), % of control": 61.4, "call": "inactive"}
{"gene symbol": "Vmn1r229", "reagent": 3, "GFP, % of control": 52.3, "viability (ATP), % of control": 88.7, "call": "inactive"}
{"gene symbol": "Laptm4a", "reagent": 1, "GFP, % of control": 72.4, "viability (ATP), % of control": 61.9, "call": "inactive"}
{"gene symbol": "Laptm4a", "reagent": 2, "GFP, % of control": 88.8, "viability (ATP), % of control": 66.2, "call": "inactive"}
{"gene symbol": "Laptm4a", "reagent": 3, "GFP, % of control": 80.1, "viability (ATP), % of control": 84.2, "call": "inactive"}
{"gene symbol": "Pde5a", "reagent": 1, "GFP, % of control": 91.3, "viability (ATP), % of control": 74.9, "call": "inactive"}
{"gene symbol": "Pde5a", "reagent": 2, "GFP, % of control": 76.1, "viability (ATP), % of control": 52.7, "call": "inactive"}
{"gene symbol": "Pde5a", "reagent": 3, "GFP, % of control": 61.6, "viability (ATP), % of control": 74.5, "call": "inactive"}
{"gene symbol": "Strc", "reagent": 1, "GFP, % of control": 85.1, "viability (ATP), % of control": 82.2, "call": "inactive"}
{"gene symbol": "Strc", "reagent": 2, "GFP, % of control": 72.3, "viability (ATP), % of control": 90.4, "call": "inactive"}
{"gene symbol": "Strc", "reagent": 3, "GFP, % of control": 79.1, "viability (ATP), % of control": 65.4, "call": "inactive"}
{"gene symbol": "2510039O18Rik", "reagent": 1, "GFP, % of control": 87.1, "viability (ATP), % of control": 66.2, "call": "inactive"}
{"gene symbol": "2510039O18Rik", "reagent": 2, "GFP, % of control": 120, "viability (ATP), % of control": 112, "call": "active"}
{"gene symbol": "2510039O18Rik", "reagent": 3, "GFP, % of control": 77.9, "viability (ATP), % of control": 60, "call": "inactive"}
{"gene symbol": "Gfi1", "reagent": 1, "GFP, % of control": 78.6, "viability (ATP), % of control": 70, "call": "inactive"}
{"gene symbol": "Gfi1", "reagent": 2, "GFP, % of control": 71.6, "viability (ATP), % of control": 60.3, "call": "inactive"}
{"gene symbol": "Cela2a", "reagent": 1, "GFP, % of control": 162, "viability (ATP), % of control": 79.6, "call": "active"}
{"gene symbol": "Cela2a", "reagent": 2, "GFP, % of control": 103, "viability (ATP), % of control": 83.3, "call": "inactive"}
{"gene symbol": "Cela2a", "reagent": 3, "GFP, % of control": 73.1, "viability (ATP), % of control": 62.1, "call": "inactive"}
{"gene symbol": "Rfk", "reagent": 1, "GFP, % of control": 48.4, "viability (ATP), % of control": 58.7, "call": "inactive"}
{"gene symbol": "Rfk", "reagent": 2, "GFP, % of control": 60.1, "viability (ATP), % of control": 68.7, "call": "inactive"}
{"gene symbol": "Rfk", "reagent": 3, "GFP, % of control": 77, "viability (ATP), % of control": 74.8, "call": "inactive"}
